Results are given in words; binding and its absence hold for the method and conditions named. Binding seen in cells or lysates may run through a third protein. Some entries that bind do so weakly or less than the wild type. For some assays here: Tags and fused reporters may be left off the sequences shown. Values belong to the molecule of their own block, whether it stands above or below them.
How the values were obtained:
Flag-TBK1 = target: T1, Flag-TBK1 (UniProt Q9UHD2); assay: co-IP; HEK293 cells transfected with Flag-TLR3, Flag-TBK1 or Flag-TRAF3 and HA-TRIF together with a control or Myc-USP19 (or USP19(C607S)) plasmid, 20 h; IP with anti-Flag or control IgG; blots with anti-HA or anti-Flag
T1 sequence: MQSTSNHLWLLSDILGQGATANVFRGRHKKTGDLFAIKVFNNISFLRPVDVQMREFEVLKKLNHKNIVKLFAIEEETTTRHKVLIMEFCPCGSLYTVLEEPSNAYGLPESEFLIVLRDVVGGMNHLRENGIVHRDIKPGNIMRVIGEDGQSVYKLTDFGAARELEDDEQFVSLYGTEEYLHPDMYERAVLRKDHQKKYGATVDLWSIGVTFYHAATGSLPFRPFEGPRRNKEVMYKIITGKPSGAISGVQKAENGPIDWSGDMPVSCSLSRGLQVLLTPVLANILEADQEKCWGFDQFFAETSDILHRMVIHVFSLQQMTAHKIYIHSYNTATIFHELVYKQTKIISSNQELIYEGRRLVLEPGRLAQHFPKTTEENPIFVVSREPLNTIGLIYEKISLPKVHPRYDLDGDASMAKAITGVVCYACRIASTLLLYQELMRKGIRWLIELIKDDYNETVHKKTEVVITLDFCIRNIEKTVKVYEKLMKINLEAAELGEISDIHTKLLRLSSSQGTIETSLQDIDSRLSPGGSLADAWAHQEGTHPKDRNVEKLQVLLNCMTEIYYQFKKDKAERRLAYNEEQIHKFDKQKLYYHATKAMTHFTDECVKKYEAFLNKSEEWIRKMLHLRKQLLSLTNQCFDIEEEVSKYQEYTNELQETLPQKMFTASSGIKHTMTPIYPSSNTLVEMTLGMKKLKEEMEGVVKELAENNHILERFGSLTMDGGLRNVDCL

Chains of the proteins cited; added tags and fusions are not shown. Residues count along the entry.
UniProt O15455, residues 24-904: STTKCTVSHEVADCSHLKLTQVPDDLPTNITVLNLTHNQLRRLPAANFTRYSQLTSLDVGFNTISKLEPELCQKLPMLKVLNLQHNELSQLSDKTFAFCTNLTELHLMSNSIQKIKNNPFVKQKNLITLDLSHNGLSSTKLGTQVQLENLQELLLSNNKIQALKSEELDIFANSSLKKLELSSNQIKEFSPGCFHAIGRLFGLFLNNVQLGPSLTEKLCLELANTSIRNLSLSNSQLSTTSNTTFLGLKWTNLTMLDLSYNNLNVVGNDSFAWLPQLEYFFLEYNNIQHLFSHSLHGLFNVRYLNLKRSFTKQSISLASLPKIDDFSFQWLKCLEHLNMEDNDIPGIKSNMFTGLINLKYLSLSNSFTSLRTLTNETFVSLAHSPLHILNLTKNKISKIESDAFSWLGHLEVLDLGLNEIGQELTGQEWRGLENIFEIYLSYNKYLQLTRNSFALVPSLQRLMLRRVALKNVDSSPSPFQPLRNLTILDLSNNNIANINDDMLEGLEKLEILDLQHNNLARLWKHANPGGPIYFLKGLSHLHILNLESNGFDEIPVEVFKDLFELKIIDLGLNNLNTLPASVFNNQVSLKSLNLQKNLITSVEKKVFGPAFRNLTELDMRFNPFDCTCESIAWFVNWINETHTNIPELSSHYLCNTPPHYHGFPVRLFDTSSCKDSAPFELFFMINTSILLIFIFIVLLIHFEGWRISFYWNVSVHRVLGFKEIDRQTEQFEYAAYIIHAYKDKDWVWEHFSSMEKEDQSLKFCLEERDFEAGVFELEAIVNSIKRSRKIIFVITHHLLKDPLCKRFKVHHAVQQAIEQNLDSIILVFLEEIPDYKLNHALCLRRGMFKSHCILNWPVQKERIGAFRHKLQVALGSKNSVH
UniProt Q8IUC6: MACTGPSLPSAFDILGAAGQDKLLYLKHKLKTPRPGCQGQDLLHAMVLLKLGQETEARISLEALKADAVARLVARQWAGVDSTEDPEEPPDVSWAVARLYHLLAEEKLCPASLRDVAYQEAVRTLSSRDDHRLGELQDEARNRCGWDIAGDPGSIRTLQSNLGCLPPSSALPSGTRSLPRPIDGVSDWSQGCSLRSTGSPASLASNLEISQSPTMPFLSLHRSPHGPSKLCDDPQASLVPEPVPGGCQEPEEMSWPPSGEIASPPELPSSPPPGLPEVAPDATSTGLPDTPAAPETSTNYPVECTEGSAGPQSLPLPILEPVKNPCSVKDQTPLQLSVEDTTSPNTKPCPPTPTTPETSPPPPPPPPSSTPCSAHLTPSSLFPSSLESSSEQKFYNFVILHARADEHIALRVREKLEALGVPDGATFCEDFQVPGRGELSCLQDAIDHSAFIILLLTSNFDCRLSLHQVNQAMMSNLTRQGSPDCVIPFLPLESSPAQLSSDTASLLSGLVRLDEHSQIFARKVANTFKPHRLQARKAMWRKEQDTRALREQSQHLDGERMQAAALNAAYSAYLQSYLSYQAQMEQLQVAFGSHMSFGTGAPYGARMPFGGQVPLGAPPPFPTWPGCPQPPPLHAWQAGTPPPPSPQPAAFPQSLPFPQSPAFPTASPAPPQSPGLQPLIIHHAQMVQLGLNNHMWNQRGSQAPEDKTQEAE
UniProt O00206, residues 24-839: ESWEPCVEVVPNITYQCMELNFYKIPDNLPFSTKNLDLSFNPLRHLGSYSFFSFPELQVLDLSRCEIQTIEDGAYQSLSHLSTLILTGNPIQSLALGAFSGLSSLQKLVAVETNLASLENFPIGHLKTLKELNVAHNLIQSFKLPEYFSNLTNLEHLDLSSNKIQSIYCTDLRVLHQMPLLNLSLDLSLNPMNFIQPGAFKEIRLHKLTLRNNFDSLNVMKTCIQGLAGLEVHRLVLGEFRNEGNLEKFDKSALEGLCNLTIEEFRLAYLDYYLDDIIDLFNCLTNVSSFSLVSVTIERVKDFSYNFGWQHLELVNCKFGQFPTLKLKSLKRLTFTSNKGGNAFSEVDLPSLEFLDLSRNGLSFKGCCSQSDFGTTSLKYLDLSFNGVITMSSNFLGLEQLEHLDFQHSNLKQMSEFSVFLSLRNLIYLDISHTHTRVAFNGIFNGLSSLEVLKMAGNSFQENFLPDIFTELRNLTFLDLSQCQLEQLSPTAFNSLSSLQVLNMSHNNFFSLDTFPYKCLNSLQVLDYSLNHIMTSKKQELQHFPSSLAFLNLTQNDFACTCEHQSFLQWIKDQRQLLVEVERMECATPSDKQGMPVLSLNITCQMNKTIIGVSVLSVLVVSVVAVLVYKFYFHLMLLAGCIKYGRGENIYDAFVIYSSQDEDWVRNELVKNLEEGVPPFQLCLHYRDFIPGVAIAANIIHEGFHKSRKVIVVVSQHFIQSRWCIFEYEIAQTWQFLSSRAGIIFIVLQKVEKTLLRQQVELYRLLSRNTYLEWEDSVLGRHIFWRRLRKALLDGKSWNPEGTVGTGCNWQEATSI
UniProt Q86XR7: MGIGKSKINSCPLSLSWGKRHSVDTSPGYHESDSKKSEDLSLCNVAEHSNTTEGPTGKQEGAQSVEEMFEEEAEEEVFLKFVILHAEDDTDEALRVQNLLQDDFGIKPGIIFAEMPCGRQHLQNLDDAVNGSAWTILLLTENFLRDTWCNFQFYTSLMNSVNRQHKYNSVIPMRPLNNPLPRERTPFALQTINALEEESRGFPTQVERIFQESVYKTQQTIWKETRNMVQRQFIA

Flag-TLR3 = Flag-TLR3 (UniProt O15455); assay: as above
[1] = target: Endogenous TRIF (human (endogenous in 293-TLR3 and 293-TLR4 cells)) (UniProt Q8IUC6); assay: co-IP; endogenous: 293-TLR3 or 293-TLR4 cells (control or USP19-deficient) untreated or treated with poly(I:C) (100 μg/ml) or LPS (100 ng/ml) for the indicated times; lysates immunoprecipitated with anti-TRIF or control IgG; immunoblots
[2] = target: TLR4, overexpressed (tag not stated for this experiment) (UniProt O00206); assay: co-IP; HEK293 cells transfected with the indicated plasmids (TRIF, TLR4, TRAM, with or without USP19 or USP19(C607S)), 20 h; co-IP and immunoblots with the indicated antibodies
[3] = target: Endogenous TRIF (human (endogenous in 293-TLR3 and 293-TLR4 cells)) (UniProt Q8IUC6); assay: co-IP; control or USP19-deficient 293-TLR4 cells untreated or treated with LPS (100 ng/ml) for the indicated times; co-IP and immunoblots with the indicated antibodies (precipitating antibody not told)
[4] = target: TRAM (TRIF-related adapter molecule), overexpressed (tag not stated for this experiment) (UniProt Q86XR7); assay: co-IP; HEK293 cells transfected with the indicated plasmids (TRIF, TLR4, TRAM, with or without USP19 or USP19(C607S)), 20 h; co-IP and immunoblots with the indicated antibodies
[5] = target: Endogenous TRIF (human (endogenous in 293-TLR3 and 293-TLR4 cells)) (UniProt Q8IUC6); assay: co-IP; endogenous: 293-TLR3 or 293-TLR4 cells (control or USP19-deficient) untreated or treated with poly(I:C) (100 μg/ml) or LPS (100 ng/ml) for the indicated times; lysates immunoprecipitated with anti-TRIF or control IgG; immunoblots; remark: listed apart in the source

Molecule: HA-TRIF (from UniProt Q8IUC6 1-712)
- binding (Flag-TBK1): binds
- binding (Flag-TLR3): binds

Molecule: TRAM of 293-TLR4 cells (from UniProt Q86XR7 1-235)
- binding [3]: binds

B1: Endogenous KCTD10 (protein, UniProt Q9H3F6 1-313)
chain: MEEMSGESVVSSAVPAAATRTTSFKGTSPSSKYVKLNVGGALYYTTMQTLTKQDTMLKAMFSGRMEVLTDSEGWILIDRCGKHFGTILNYLRDGAVPLPESRREIEELLAEAKYYLVQGLVEECQAALQNKDTYEPFCKVPVITSSKEEQKLIATSNKPAVKLLYNRSNNKYSYTSNSDDNMLKNIELFDKLSLRFNGRVLFIKDVIGDEICCWSFYGQGRKIAEVCCTSIVYATEKKQTKVEFPEARIYEETLNILLYEAQDGRGPDNALLEATGGAAGRSHHLDEDEERERIERVRRIHIKRPDDRAHLHQ
- binding [5]: binds

Results, then the molecule that gave them:

- binding [1]: binds
Molecule: TLR3 of 293-TLR3 cells (from UniProt O15455 24-904) (receptor)

- binding [2]: binds
Molecule: TRAM (TRIF-related adapter molecule), overexpressed (tag not stated for this experiment) (from UniProt Q86XR7 1-235)

- binding [4]: binds
Molecule: TRIF, overexpressed (tag not stated for this experiment) (from UniProt Q8IUC6 1-712)

- binding [5]: binds
B2: Endogenous USP19 (enzyme, UniProt O94966 1-1318)
chain: MSGGASATGPRRGPPGLEDTTSKKKQKDRANQESKDGDPRKETGSRYVAQAGLEPLASGDPSASASHAAGITGSRHRTRLFFPSSSGSASTPQEEQTKEGACEDPHDLLATPTPELLLDWRQSAEEVIVKLRVGVGPLQLEDVDAAFTDTDCVVRFAGGQQWGGVFYAEIKSSCAKVQTRKGSLLHLTLPKKVPMLTWPSLLVEADEQLCIPPLNSQTCLLGSEENLAPLAGEKAVPPGNDPVSPAMVRSRNPGKDDCAKEEMAVAADAATLVDEPESMVNLAFVKNDSYEKGPDSVVVHVYVKEICRDTSRVLFREQDFTLIFQTRDGNFLRLHPGCGPHTTFRWQVKLRNLIEPEQCTFCFTASRIDICLRKRQSQRWGGLEAPAARVGGAKVAVPTGPTPLDSTPPGGAPHPLTGQEEARAVEKDKSKARSEDTGLDSVATRTPMEHVTPKPETHLASPKPTCMVPPMPHSPVSGDSVEEEEEEEKKVCLPGFTGLVNLGNTCFMNSVIQSLSNTRELRDFFHDRSFEAEINYNNPLGTGGRLAIGFAVLLRALWKGTHHAFQPSKLKAIVASKASQFTGYAQHDAQEFMAFLLDGLHEDLNRIQNKPYTETVDSDGRPDEVVAEEAWQRHKMRNDSFIVDLFQGQYKSKLVCPVCAKVSITFDPFLYLPVPLPQKQKVLPVFYFAREPHSKPIKFLVSVSKENSTASEVLDSLSQSVHVKPENLRLAEVIKNRFHRVFLPSHSLDTVSPSDTLLCFELLSSELAKERVVVLEVQQRPQVPSVPISKCAACQRKQQSEDEKLKRCTRCYRVGYCNQLCQKTHWPDHKGLCRPENIGYPFLVSVPASRLTYARLAQLLEGYARYSVSVFQPPFQPGRMALESQSPGCTTLLSTGSLEAGDSERDPIQPPELQLVTPMAEGDTGLPRVWAAPDRGPVPSTSGISSEMLASGPIEVGSLPAGERVSRPEAAVPGYQHPSEAMNAHTPQFFIYKIDSSNREQRLEDKGDTPLELGDDCSLALVWRNNERLQEFVLVASKELECAEDPGSAGEAARAGHFTLDQCLNLFTRPEVLAPEEAWYCPQCKQHREASKQLLLWRLPNVLIVQLKRFSFRSFIWRDKINDLVEFPVRNLDLSKFCIGQKEEQLPSYDLYAVINHYGGMIGGHYTACARLPNDRSSQRSDVGWRLFDDSTVTTVDESQVVTRYAYVLFYRRRNSPVERPPRAGHSEHHPDLGPAAEAAASQASRIWQELEAEEEPVPEGSGPLGPWGPQDWVGPLPRGPTTPDEGCLRYFVLGTVAALVALVLNVFYPLVSQSRWR

From publication PMC6739404
